The list is a part of this screen's results and no random one: it gathers tests that were run many times, whatever their T/C, doses with no T/C, and many T/C values between a quarter and a half above the control. Other doses and runs of a compound stand elsewhere. T/C is the treated group as % of the vehicle group. Some doses have a count of surviving animals in place of a T/C: the source holds a T/C of zero for them, seemingly a mark for toxic or unscored doses. Some survivor counts are full or nearly so, which does not show that the dose was tolerated: survival well below the control is almost never listed, so the zero probably covers shortened survival too. Survivors were counted at the toxicity check, usually on the fifth day, unless a day is given; later deaths do not show. Schedules are NCI's codes, taken here to give the interval after Q, in days (D) or hours (H), and the number of doses after X.

The assay relates to L1210 leukemia ip in BDF1 mice, survival T/C. Nature of the assay: NCI In Vivo Anticancer Drug Screen. Data for tumor model L1210 Leukemia (intraperitoneal) in B6D2F1 (BDF1) mice. As to conditions: T/C endpoint: mean survival time, higher T/C = longer survival.
Where [1] appears, read: dose: 400.0 mg/kg/injection, schedule: Q01DX001 (ip), vehicle: saline.

With `O=C([S][Pb]([c]1ccccc1)([c]1ccccc1)[c]1ccccc1)c1ccccc1`, the survivor count (dose: 8.0 mg/kg/injection, schedule: Q01DX009 (ip), vehicle: Klucel (hydroxypropylcellulose) (HPC)) is reported as 0 of 6; the survivor count (dose: 11.0 mg/kg/injection, schedule: Q01DX009 (ip), vehicle: Klucel (hydroxypropylcellulose) (HPC)) was 0 of 6; the survivor count (dose: 18.0 mg/kg/injection, schedule: Q01DX009 (ip), vehicle: Klucel (hydroxypropylcellulose) (HPC)) is on record as 0 of 6; the survivor count (dose: 18.0 mg/kg/injection, schedule: Q04DX003 (ip), vehicle: Klucel (hydroxypropylcellulose) (HPC)) was 4 of 6; the survivor count (dose: 27.0 mg/kg/injection, schedule: Q01DX009 (ip), vehicle: Klucel (hydroxypropylcellulose) (HPC)) was 0 of 6; the survivor count (dose: 27.0 mg/kg/injection, schedule: Q04DX003 (ip), vehicle: Klucel (hydroxypropylcellulose) (HPC)) is reported as 4 of 6.

In the case of `CC1=[N+](C)C(C)(C)CC(C)O1` (configuration not stated), the survivor count by setting is: (dose: 100.0 mg/kg/injection, schedule: Q04DX003 (ip), vehicle: saline) 5 of 6; (dose: 200.0 mg/kg/injection, schedule: Q04DX003 (ip), vehicle: saline) 1 of 6; (dose: 400.0 mg/kg/injection, schedule: Q04DX003 (ip), vehicle: saline) 0 of 6.

As to `O=S(=O)(O)SCCN1CCCCCCC1`, the survivor count (dose: 200.0 mg/kg/injection, schedule: Q01DX009 (ip), vehicle: saline) is reported as 3 of 6 and the survivor count (dose: 400.0 mg/kg/injection, schedule: Q01DX009 (ip), vehicle: saline) is on record as 0 of 6.

On to `CCCC[N+](C)(CCCC)CCCC`, for which the survivor count reads like this: (dose: 150.0 mg/kg/injection, schedule: Q01DX001 (ip), vehicle: saline) 1 of 6; (dose: 300.0 mg/kg/injection, schedule: Q01DX001 (ip), vehicle: saline) 0 of 6.

On to `O=[N+]([O-])c1ccc(C[Se]c2ncnc3c2ccn3C2OC(CO)C(O)C2O)cc1` (configuration not stated), for which the survivor count (dose: 50.0 mg/kg/injection, schedule: Q01DX005 (ip), vehicle: saline) is 0 of 6.

With `CCCCOC(OCCCC)c1ccccc1`, the survivor count is listed as 4 of 4 (dose: 200.0 mg/kg/injection, schedule: Q01DX001 (ip), vehicle: carboxymethylcellulose (CMC)) and 4 of 4 (dose: 400.0 mg/kg/injection, schedule: Q01DX001 (ip), vehicle: carboxymethylcellulose (CMC)).

Take `CN1CCN(c2c3c(nc4ccccc24)CCCC3)CC1`: the survivor count is on record as 0 of 4 (dose: 200.0 mg/kg/injection, schedule: Q01DX001 (ip), vehicle: saline) and 0 of 4 under setting [1].

As for `O=C(Nc1cc(C(F)(F)F)cc(C(F)(F)F)c1)Nc1c(Oc2ccc(Cl)cc2Cl)ccc(Cl)c1S(=O)(=O)O`, the survivor count (dose: 400.0 mg/kg/injection, schedule: Q04DX003 (ip), vehicle: saline sonified) is on record as 3 of 6.

Consider `c1ccc(CCNc2ncnc3[nH]ncc23)cc1`, for which, for the setting “dose: 100.0 mg/kg/injection, schedule: Q01DX015 (ip), vehicle: carboxymethylcellulose (CMC)”, the survivor count is 3 of 6.

For `O=c1ccc2c(ccc3ncccc32)o1`, under “dose: 200.0 mg/kg/injection, schedule: Q01DX009 (ip), vehicle: carboxymethylcellulose (CMC)”, the survivor count was 0 of 6.

On to `CCCCC(=O)N(CC)CC`, for which the survivor count (dose: 400.0 mg/kg/injection, schedule: Q01DX001 (ip), vehicle: acetone) was 3 of 6.

Turning to `CC(C)c1ccccc1NC1=NCCO1`, the survivor count runs as follows: (dose: 100.0 mg/kg/injection, schedule: Q01DX009 (ip), vehicle: Klucel (hydroxypropylcellulose) (HPC)) 0 of 3; (dose: 200.0 mg/kg/injection, schedule: Q01DX009 (ip), vehicle: Klucel (hydroxypropylcellulose) (HPC)) 0 of 3.

Take `CC(=O)N(C=C(C#N)C#N)c1ccccc1`: the survivor count (dose: 400.0 mg/kg/injection, schedule: Q01DX001 (ip), vehicle: Klucel (hydroxypropylcellulose) (HPC)) was 0 of 6.

Turning to `COc1cc(CC2=NCCc3cc(OC)c(OCc4ccccc4)cc32)ccc1OCc1ccccc1`, the survivor count (dose: 400.0 mg/kg/injection, schedule: Q01DX009 (ip), vehicle: saline with Tween-80) is recorded as 3 of 6.

On to `CCSc1ncc(F)c(=O)[nH]1`, for which, under setting [1], the survivor count was 0 of 4.

Values taken from PubChem BioAssay AID248 (DTP/NCI, 2004).
